Results on three molecules are retold here after article PMC8522085.

Experiment [1] concerns the target OsANN4-BD (Oryza sativa L. spp. Japonica). Nature of the experiment: two-hybrid; pGADT7 (AD) and pGBKT7 (BD) constructs cotransformed into AH109 yeast; growth on SD/-Leu/-Trp/-His/-Ade.
Experiment [2] concerns the target OsANN4-GST (Oryza sativa L. spp. Japonica). Kind of experiment: pull-down; GST or OsANN4-GST incubated with OsCDPK24-His in 25 mM Tris pH 7.2, 150 mM NaCl overnight at 4°C; GST beads; washed with 0.1% NP-40; anti-His blot; both purified.
For experiment [3], the target named is OsANN4 (S13A)-Cluc (Oryza sativa L. spp. Japonica). Kind of experiment: split reporter; firefly luciferase complementation imaging (LCI) in tobacco (N. benthamiana) leaves, Cluc and Nluc fusions, 2.5 mM D-luciferin.
Experiment [4] deals with OsANN4-Cluc (Oryza sativa L. spp. Japonica). The experiment is described as above.

No constants are given. Whether binding was seen depends on the method and setting. Binding calls can cover weak binding; strength is not graded here. Sequences can lack the tags named with a protein. For some of these results: Binding seen in cells or lysates may run through a third protein.

B1: OsCDPK24-AD (enzyme, UniProt Q53P85 1-513)
chain: MQPDPSGSGGDGNANAKAKLAPPPVTAAGGRPVSVLPHKTANVRDHYRIGKKLGQGQFGTTYLCVDKASGGEFACKSIPKRKLLCREDYEDVWREIQIMHHLSEHPNVVRIRGAYEDALFVHIVMELCAGGELFDRIVAKGHYTERAAAQLIRTIVAVVEGCHSLGVMHRDLKPENFLFASAAEDAPLKATDFGLSMFYKPGDKFSDVVGSPYYVAPEVLQKCYGPESDVWSAGVILYILLCGVPPFWAETEAGIFRQILRGKLDFESEPWPSISDSAKDLVRNMLCRDPTKRLTAHEVLCHPWIVDDAVAPDKPIDSAVLSRLKHFSAMNKLKKMALRVIAESLSEEEIGGLKELFKMIDTDDSGTITFDELKEGLKRVGSELTEHEIQALMEAADIDNSGTIDYGEFIAATLHMNKLEREENLVSAFSFFDKDGSGFITIDELSQACREFGLDDLHLEDMIKDVDQNNDGQIDYSEFTAMMRKGNAGGAGRRTMRNSLQLNLGEILNPSNS
Regarding B1, the binding result in experiment [1] is “binds”.

B2: OsCDPK24-His (enzyme, UniProt Q53P85 1-513)
chain: B1 chain
Take B2: the binding entry in experiment [2] was “binds”.

B3: OsCDPK24-Nluc (enzyme, UniProt Q53P85 1-513)
chain: B1 chain
Consider B3, for which the binding result in experiment [3] and in experiment [4] was “binds” throughout.
